PubChem BioAssay AID743121, NCATS | 2013
In all, the deposit lists about 26,000 reagents; this is a random part of them. 167 of them (0.63%) were called active. 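Calls are per gene from RSA p-values that are not deposited; an individual active-marked siRNA can sensitise only weakly.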 Reagents against one gene are numbered here.

- Aim: 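Partners whose loss is lethal together with topoisomerase I blockade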 (primary screen)
- Cell system: MDA-MB-231 cells, a human breast cancer line
- Knock-down reagent: single siRNA against human genes, 20 nM siRNA (0.8 pmol per well)
- Timing: 120 h (drug added 48 h after transfection, read 72 h later)
- Conditions: camptothecin 20 nM (about EC30) for 72 h; vehicle 0.1% DMSO in parallel plates
- Read-out: 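CellTiter-Glo ATP signal, scaled to control siRNA as percent viability; sensitisation given as log2 of untreated divided by camptothecin-treated viability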
- Reading the numbers: log2 vehicle/camptothecin viability: higher = stronger sensitisation to camptothecin; viability with camptothecin and viability without drug: higher = more viable cells
- Rule for the call: 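Active genes have an RSA gene-level p-value below 0.001, computed from the ratios of their separate siRNAs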

| Gene | siRNA no. | log2 vehicle/camptothecin viability | viability with camptothecin (% of control) | viability without drug (% of control) | outcome |
| --- | --- | --- | --- | --- | --- |
| GABRP | 1 | 0.0355 | 101 | 104 | inactive |
| GABRP | 2 | -0.163 | 43.9 | 39.2 | inactive |
| GABRP | 3 | -0.0878 | 87 | 81.9 | inactive |
| GABRP | 4 | 0.059 | 65.7 | 68.4 | inactive |
| EPS15L1 | 1 | 0.924 | 53.6 | 102 | inactive |
| EPS15L1 | 2 | -0.131 | 79 | 72.2 | inactive |
| EPS15L1 | 3 | 0.914 | 28.3 | 53.3 | inactive |
| EPS15L1 | 4 | -0.153 | 99.1 | 89.1 | inactive |
| ABCF2 | 1 | 0.26 | 79.8 | 95.5 | inactive |
| ABCF2 | 2 | 0.105 | 86.1 | 92.6 | inactive |
| ABCF2 | 3 | 0.315 | 34.2 | 42.6 | inactive |
| ABCF2 | 4 | -0.362 | 74.9 | 58.3 | inactive |
| KIF22 | 1 | -0.403 | 122 | 92.4 | inactive |
| KIF22 | 2 | -0.386 | 68.1 | 52.1 | inactive |
| KIF22 | 3 | -0.0602 | 89.7 | 86.1 | inactive |
| KIF22 | 4 | -0.36 | 8.75 | 6.82 | inactive |
| BCL2L10 | 1 | -0.0062 | 52.8 | 52.5 | inactive |
| BCL2L10 | 2 | 0.25 | 66.1 | 78.6 | inactive |
| BCL2L10 | 3 | -0.584 | 18 | 12 | inactive |
| BCL2L10 | 4 | 0.917 | 51.1 | 96.4 | inactive |
| RING1 | 1 | -0.529 | 51 | 35.4 | inactive |
| RING1 | 2 | 0.236 | 34.4 | 40.5 | inactive |
| RING1 | 3 | 0.19 | 3.37 | 3.84 | inactive |
| RING1 | 4 | -0.376 | 117 | 90.2 | inactive |
| SUCNR1 | 1 | -0.151 | 26.9 | 24.3 | inactive |
| SUCNR1 | 2 | -0.15 | 75.9 | 68.4 | inactive |
| SUCNR1 | 3 | -0.111 | 78.1 | 72.3 | inactive |
| SUCNR1 | 4 | -0.41 | 127 | 95.9 | inactive |
| PDE1C | 1 | 0.197 | 79.3 | 90.9 | inactive |
| PDE1C | 2 | -0.536 | 62.5 | 43.1 | inactive |
| PDE1C | 3 | -0.185 | 51.3 | 45.2 | inactive |
| PDE1C | 4 | -0.145 | 93 | 84.1 | inactive |
| TUBAL3 | 1 | -0.282 | 128 | 105 | inactive |
| TUBAL3 | 2 | -0.429 | 104 | 77.4 | inactive |
| TUBAL3 | 3 | -0.112 | 81.2 | 75.2 | inactive |
| TUBAL3 | 4 | -0.0295 | 79.5 | 77.9 | inactive |
| BTK | 1 | -0.197 | 125 | 109 | inactive |
| BTK | 2 | 0.342 | 57.8 | 73.2 | inactive |
| BTK | 3 | 0.286 | 77.8 | 94.9 | inactive |
| BTK | 4 | -0.491 | 79.8 | 56.8 | inactive |
| IL13 | 1 | -0.0358 | 100 | 97.7 | inactive |
| IL13 | 2 | -0.496 | 72.6 | 51.4 | inactive |
| IL13 | 3 | -0.442 | 68.8 | 50.7 | inactive |
| IL13 | 4 | 0.0058 | 72.8 | 73.1 | inactive |
| CA13 | 1 | -0.118 | 82.2 | 75.8 | inactive |
| CA13 | 2 | 0.174 | 65.3 | 73.6 | inactive |
| CA13 | 3 | -0.283 | 115 | 94.2 | inactive |
| CA13 | 4 | -0.0634 | 111 | 106 | inactive |

Reprinted from the entries so far, 8 entries:
| Gene | siRNA no. | log2 vehicle/camptothecin viability | viability with camptothecin (% of control) | viability without drug (% of control) | outcome |
| --- | --- | --- | --- | --- | --- |
| TUBAL3 | 4 | -0.0295 | 79.5 | 77.9 | inactive |
| BTK | 1 | -0.197 | 125 | 109 | inactive |
| BTK | 2 | 0.342 | 57.8 | 73.2 | inactive |
| BTK | 3 | 0.286 | 77.8 | 94.9 | inactive |
| BTK | 4 | -0.491 | 79.8 | 56.8 | inactive |
| IL13 | 1 | -0.0358 | 100 | 97.7 | inactive |
| IL13 | 2 | -0.496 | 72.6 | 51.4 | inactive |
| IL13 | 3 | -0.442 | 68.8 | 50.7 | inactive |
